Results: PubChem BioAssay AID504834 (National Center for Advancing Translational Sciences (NCATS), 2011)
Hit rate of the full screen: of about 320,000 compounds, about 22,000 (6.9%) were called active. Inconclusive results, whose numbers are uncertain, are shown with a selection of clear calls. The call rests on the fitted dose curve; in most records, active means well fitted inhibition curve with a large enough effect; inconclusive means small, poorly fitted or top-dose-only effect, or another doubt; inactive means no such curve, though single readings can be large or run the other way. Potencies of inconclusive entries are doubtful fits and often do not repeat.

Experiment: Primary qHTS for delayed death inhibitors of the malarial parasite plastid, 96 hour incubation
Conditions: P. falciparum luciferase reporter growth; series mostly up to 28.7 µM; activity change, negative = inhibition: at the top concentration
In short: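 Parasite growth measured via integrated firefly luciferase reporter in P. falciparum. Infected erythrocytes at 2% hematocrit, 0.05% parasitemia final were treated 96 hours at 37 C under 5% CO2, and luminescence was read.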
On the % scale 0 is the no-effect control and ±100 the full control effect; potency means the concentration at half of the fitted maximal effect.

Row | SMILES | activity change, negative = inhibition | Potency
1 | O=C(Nc1cccc(C(=O)N2CCOCC2)c1)c1ccc([N+](=O)[O-])cc1 | inactive: 5.3% | 
2 | O=C(CN1CCCC1)NCC1(c2ccccc2)CCOCC1 |  | inconclusive: 18.5 µM [inhibitor, single point]
3 | C[C@H](NC(=O)c1nc[nH]c1C(=O)N[C@@H](Cc1ccccc1)C(=O)OCc1ccccc1)C(=O)OC(C)(C)C |  | inconclusive: 2.94 µM [inhibitor, full curve, poor fit]
4 | CC(C)(C)C(=O)Nc1nc(-c2ccc3c(c2)OCO3)cs1 | inactive: 20.1% | 
5 | Oc1ccc(N=Cc2ccc(OCc3ccccc3)cc2)cc1 |  | inconclusive: 18.5 µM [inhibitor, single point]
6 | O=C(CN1C(=O)CCSc2ccccc21)Nc1cccc(F)c1 |  | inconclusive: 9.28 µM [inhibitor, partial curve, poor fit]
7 | O=C(N/N=C/c1c[nH]c2ccccc12)c1ccccc1 | inactive: 0.706% | 
8 | Cc1ccc(Nc2nc3ccccc3nc2Nc2c(C)n(C)n(-c3ccccc3)c2=O)cc1 | inactive: 46.5% | 
9 | COCCNC(=S)N1CCN(c2cccc(C)c2C)CC1 |  | inconclusive: 18.5 µM [inhibitor, single point]
10 | Cc1ccc(-n2c(O)c(/C=N/N3CCCCC3c3cccnc3)c(=O)[nH]c2=S)cc1 (stereo not given) |  | inconclusive: 4.65 µM [inhibitor, single point]
11 | O=C(COc1ccc(F)cc1)Nc1cc(Cl)ccc1-n1cncn1 | inactive: -4.78% | 
12 | COc1ccc(CN2CCN(c3ccccn3)CC2)c(OC)c1 | inactive: -24% | 
13 | COP(=O)(OC)c1nc(-c2cccc3ccccc23)oc1NCc1ccccc1 |  | inconclusive: 18.5 µM [inhibitor, single point]
14 | O=C(CN1C(=O)S/C(=C\c2ccc(F)cc2)C1=O)NC1C=CS(=O)(=O)C1 (stereo not given) |  | inconclusive: 2.62 µM [inhibitor, single point]
15 | CCN1/C(=C/C=C/c2sc3ccccc3[n+]2CC)Sc2ccccc21 |  | active: 0.147 µM
16 | Cc1ccc(C2=NNC(c3ccc(Cl)cc3)=Nc3ccccc32)o1 |  | active: 10.4 µM
17 | Cc1ccc2c(C)c(C(=O)N3CCN(C4CCS(=O)(=O)C4)CC3)oc2c1C (stereo not given) |  | inconclusive: 18.5 µM [inhibitor, partial curve, poor fit]
18 | Cc1cccc(C2(c3cccc(C)c3)CC2C(=O)Nc2ccc([N+](=O)[O-])cc2O)c1 (stereo not given) |  | inconclusive: 2.08 µM [inhibitor, single point]
19 | N#CC1=C2Sc3ccccc3N2CCCC1=O | inactive: 59.8% | 
20 | COc1ccccc1NC(=O)c1sc2ncn(Cc3ccc(C)cc3)c(=O)c2c1C |  | inconclusive: 20.8 µM [inhibitor, partial curve, poor fit]
21 | Cc1nc(Nc2ccc(S(=O)(=O)N3CCCC3)cc2)c2nnn(Cc3ccccc3)c2n1 |  | inconclusive: 0.828 µM [inhibitor, partial curve]
22 | CCCC(=O)N(Cc1cc(=O)[nH]c2ccccc12)c1ccccc1OC |  | active: 11.7 µM
23 | Cc1nc(N2CCN(c3ccccc3)CC2)c2c3c(sc2n1)CCC3 |  | inconclusive: 13.1 µM [inhibitor, single point]
24 | Cc1cccc(-n2c(O)c(C=NCCCN3CCOCC3)c3ccccc3c2=O)c1 |  | inconclusive: 10.4 µM [inhibitor, single point]

Row | SMILES | activity change, negative = inhibition | Potency
25 | COc1ccc(C(=O)O/N=C(\N)Cc2ccc(Cl)c(Cl)c2)cc1OC | inactive: 17.1% | 
26 | CCC(=O)Nc1ccc(C(=O)NCc2ccccn2)cc1 |  | inconclusive: 7.38 µM [inhibitor, partial curve]
27 | CCOC(=O)C1CCCN(c2cc(=O)n(C3CCCCC3)c(=O)[nH]2)C1 (stereo not given) | inactive: -16.7% | 
28 | CCOC(=O)c1c(S(=O)(=O)NCC2CCN(CCc3cccs3)CC2)c(C)n(C)c1C |  | inconclusive: 10.4 µM [inhibitor, single point]
29 | COc1ccccc1/C=C/C(=O)Nc1ccc(S(=O)(=O)Nc2cc(C)nc(C)n2)cc1 | inactive: 11.4% | 
30 | O=C(COC(=O)CCc1c[nH]c2ccccc12)NC1CCS(=O)(=O)C1 (stereo not given) | inactive: 7.57% | 
31 | CCOC(=O)C1(Cc2ccccc2)CCN(Cc2ccc3c(c2)OCCO3)CC1 |  | inconclusive: 11.7 µM [inhibitor, single point]
32 | COc1ccc(-n2cc(C(=O)c3ccc4ccccc4c3O)cn2)cc1 |  | inconclusive: 0.465 µM [inhibitor, full curve, poor fit]
33 | O=C(NC1CCN(Cc2ccccc2)CC1)c1ccc(Oc2cc(Cl)cc(Cl)c2)o1 |  | inconclusive: 18.5 µM [inhibitor, single point]
34 | CN(C)C1(CNC(=S)Nc2ccccc2C(F)(F)F)CCCCC1 |  | inconclusive: 5.22 µM [inhibitor, partial curve, poor fit]
35 | COc1ccccc1-c1cc(C(F)(F)F)nc(N2CCCC2)n1 | inactive: 0% | 
36 | Cc1ccc(OCCNS(=O)(=O)c2ccc(N3CCCC3=O)cc2)cc1 |  | inconclusive: 18.5 µM [inhibitor, partial curve, poor fit]
37 | O=C(CC1C(=O)NCCN1Cc1ccccc1F)NC1CCCCCC1 (stereo not given) |  | inconclusive: 18.5 µM [inhibitor, single point]
38 | COc1ccc(NC(=O)c2ccc3ccccc3n2)cc1S(=O)(=O)Nc1ccccc1Cl |  | inconclusive: 16.5 µM [inhibitor, single point]
39 | CCCCn1c(O)c(C(C)=NCc2ccc(F)cc2)c(=O)[nH]c1=O |  | active: 6.57 µM
40 | O=C(NCCNCc1ccccn1)c1ccco1 |  | inconclusive: 0.928 µM [inhibitor, full curve, poor fit]
41 | COc1cc2c(cc1OC)C(C)N(C(=O)c1sccc1C)CC2 (stereo not given) |  | inconclusive: 11.7 µM [inhibitor, single point]
42 | COc1cc(C(=O)/C=C/c2cccnc2)c([N+](=O)[O-])cc1OC |  | inconclusive: 0.104 µM [inhibitor, full curve, poor fit]
43 | COc1cccc(NC(=O)c2cc3ccccc3oc2=O)c1 |  | inconclusive: 18.5 µM [inhibitor, single point]
44 | CCOc1ccc(-c2cc(N)n(S(=O)(=O)c3ccc(OC)cc3)n2)cc1 |  | inconclusive: 18.5 µM [inhibitor, single point]
45 | C=CCn1c(SCCOc2ccc(OC)cc2)nnc1C(C)NC(=O)c1ccc(OC)cc1 (stereo not given) |  | active: 6.57 µM
46 | COc1ccc(CNc2ncnc3cc(Cl)ccc23)cc1 |  | inconclusive: 10.4 µM [inhibitor, single point]
47 | O=C(CSc1nncc(=O)[nH]1)NC1CCCCC1 |  | active: 3.7 µM
48 | O=C(O)c1ccc(/C=C/c2nc3ccccc3c(=O)[nH]2)cc1 | inactive: 36% | 

Full records, quoted from the list:
O=C(O)c1ccc(/C=C/c2nc3ccccc3c(=O)[nH]2)cc1 is entered as activity change, negative = inhibition: inactive: 36%
O=C(CSc1nncc(=O)[nH]1)NC1CCCCC1 is entered as Potency: active: 3.7 µM
CN(C)C1(CNC(=S)Nc2ccccc2C(F)(F)F)CCCCC1 is entered as Potency: inconclusive: 5.22 µM [inhibitor, partial curve, poor fit]
CCC(=O)Nc1ccc(C(=O)NCc2ccccn2)cc1 is entered as Potency: inconclusive: 7.38 µM [inhibitor, partial curve]

(more compounds)

Row | SMILES | activity change, negative = inhibition | Potency
49 | c1ccc(-c2cc(-c3ccncc3)nc3ccc4ccccc4c23)cc1 | inactive: -8.23% | 
50 | COC(=O)C1=C(C(=O)OC)SC2(S1)C(C(=O)OC)=C(C(=O)OC)SC1=C2c2cc(C)cc(C)c2NC1(C)C |  | inconclusive: 14.7 µM [inhibitor, single point]
51 | CCOCCn1c(CN2CCCCC2C)nc2c1c(=O)n(C)c(=O)n2C (stereo not given) |  | inconclusive: 2.33 µM [inhibitor, partial curve, poor fit]
52 | CC1(C)C(c2ccccc2)=NC(c2ccc(Br)cc2)N1O (stereo not given) |  | inconclusive: 10.4 µM [inhibitor, single point]
53 | CCCCNS(=O)(=O)c1ccc(OC)c(C)c1 |  | inconclusive: 18.5 µM [inhibitor, single point]
54 | CSCC[C@H](NC(=O)c1ccc(Cl)c([N+](=O)[O-])c1)c1nc2ccccc2[nH]1 | inactive: -14.2% | 
55 | COC(=O)c1c(N2C(=O)[C@H]3[C@@H](C2=O)[C@]2(C(=O)Nc4c(C)cc(C)cc42)N2CCC[C@@H]32)sc(C)c1C |  | inconclusive: 10.4 µM [inhibitor, single point]
56 | COc1cc(C#N)ccc1OCC(=O)Nc1ccc(C)c(S(=O)(=O)N2CCOCC2)c1 |  | inconclusive: 18.5 µM [inhibitor, single point]
57 | O=C(CN1C(=O)CSc2ncccc21)N1CCOCC1 |  | inconclusive: 18.5 µM [inhibitor, single point]
58 | CC(=O)Nc1ccc(NC(=O)CC23CC4CC(CC(C4)C2)C3)cc1 |  | inconclusive: 9.28 µM [inhibitor, single point]
59 | Cc1cc(C)cc(N2C(=O)NC(=O)/C(=C\c3cc(C)n(C)c3C)C2=O)c1 | inactive: 1.71% | 
60 | COc1ccc(-c2cc(C(F)(F)F)n3nc(C(=O)N(C)Cc4ccccc4)cc3n2)cc1OC | inactive: -35.2% [at 5.75 µM] | 
61 | COc1ccc2c(=O)cc(C(F)(F)C(F)(F)F)oc2c1 | inactive: -23% | 
62 | CC1(C)Cc2c(ccc3ccccc23)C2=C(C(=O)N3CCCC3)C(=O)C(=O)N21 |  | inconclusive: 11.7 µM [inhibitor, single point]
63 | CC(=O)Nc1ccc(NC(=O)CN(c2cc(Cl)ccc2Cl)S(C)(=O)=O)cc1 |  | inconclusive: 7.38 µM [inhibitor, single point]
64 | CN1CCN(CCC2Oc3cc([N+](=O)[O-])ccc3NC2=O)CC1 (stereo not given) |  | inconclusive: 18.5 µM [inhibitor, single point]
65 | Cc1[nH]c2ccccc2c1SCC(=O)NC1CCCCC1 | inactive: -17.3% | 
66 | COc1cnc(-c2ccccn2)[nH]c1=O |  | active: 5.86 µM
67 | CCOC(=O)c1sc2nc(C)nc(NCc3ccccc3)c2c1C | inactive: 316% | 
68 | Cc1cccc(/C=N/NC(=O)c2cc(-c3cccnc3)nc3c2c(C)nn3-c2ccccc2)c1 |  | inconclusive: 5.86 µM [inhibitor, partial curve, poor fit]
69 | CCc1ccc(C2c3[nH]c4ccccc4c3CCN2C(=O)CNC(N)=O)cc1 (stereo not given) | inactive: -13.6% | 
70 | Cc1cc(NCc2ccccc2Cl)n2nnnc2n1 |  | inconclusive: 11.7 µM [inhibitor, partial curve]
